Experimental data from patent publication US10196668B2, “Reagents and methods for screening MPS I, II, IIIA, IIIB, IVA, VI, and VII” (University of Washington through its Center for …, priority 2013, dated 2019).
Where a name gives a salt, the structure may show the parent alone.

Assay: MSMS response (ion counts per pmole of analyte) of products and internal standards
Conditions: for MSMS response: MPS-I product compared to Fabry assay product

## CCCCC(=O)N(CCCCCCNC(=O)c1ccccc1)CCC(=O)Nc1ccc(OC2OC(C(=O)O)C(O)C(O)C2OS(=O)(=O)O)cc1 (stereo not drawn) [Alternative MPS-II]
MPS-II
  sensitivity in MSMS detection of product, alternative versus original substrate: about 10 fold
MPS-II product and internal standard, infused into tandem mass spectrometer
  MSMS response of IS and P: 86 ion counts/pmole

## CC(=O)N(CCCCCCNC(=O)c1ccccc1)CCC(=O)Nc1ccc(OC2OC(C(=O)O)C(O)C(O)C2O)cc1 (stereo not drawn) [Alternative MPS-I]
MPS-I product and internal standard, LC/MSMS
  MSMS response of IS and P: 500 ion counts/pmole
MPS-I, LC/MSMS
  sensitivity in MSMS detection of product, alternative versus original substrate: about 5 fold
MPS-I, flow injection-MSMS (not shown)
  MSMS response of product and internal standard, alternative versus original: about 5 fold

## CCCCC(=O)N(CCCCCNC(=O)c1ccccc1)CCC(=O)Nc1ccc(OC2OC(CO)C(OS(=O)(=O)O)C(O)C2NC(C)=O)cc1 [Alternative MPS-VI, Sodium (2R,3R,4R,5R,6S)-5-acetamido-6(4(3-(N (5-benzamidopentyl)-pentanamido)propanamido)phenoxy)-4-hydroxy-2-(hydroxymethyl)tetrahydro-2H-pyran-3-yl sulfate]
MPS-VI
  sensitivity in MSMS detection of product, alternative versus original substrate: about 10 fold
MPS-VI product and internal standard, infused into tandem mass spectrometer
  MSMS response of IS and P: 290 ion counts/pmole

## CC(C)(C)OC(=O)N(CCCCCCNC(=O)c1ccccc1)CCC(=O)Nc1ccc(O)cc1 [Fabry product, reference compound]
  MSMS response: 211 ion counts per pmole

## CC(=O)N(CCCCCCNC(=O)c1ccccc1)CCC(=O)Nc1ccc(O)cc1 [MPS-I product]
  MSMS response: 500 ion counts per pmole
